Data published in PubChem BioAssay AID540276 (National Center for Advancing Translational Sciences (NCATS), 2011).
Hit rate of the full screen: of about 300,000 compounds, about 5,400 (1.8%) were called active. The inconclusive results got no clear call from the source; some entries with a clear call stand among them for comparison. Calls come from the whole dose curve; tested in HEK293 cells. A potency beside an inconclusive call is a rough fit, not a confirmed value.

Experiment: qHTS for inhibitors of binding or entry into cells for Marburg Virus
Conditions: Marburg virus pseudotyped entry inhibition, cell reporter; series mostly up to 37.8 µM
Potency is the fitted concentration of half-maximal effect.

Structure (SMILES)	Potency
N#Cc1ccc(CSc2ccccn2)c(Cl)c1	inactive
Nc1cccc2nsnc12	inconclusive: 35.5 µM [inhibitor, single point]
Cc1ccc(C(=O)Nc2nc3ccccc3s2)s1	inconclusive: 16.4 µM [inhibitor, single point]
Clc1ccc(C(c2nnnn2C2CCCC2)N2CCSCC2)cc1 (stereo not drawn)	inconclusive: 18.3 µM [inhibitor, partial curve, poor fit]
Cc1ccc(-n2c(Cc3cccn3C)nnc2SCC(=O)NCc2ccco2)cc1	inactive
Cn1c(N=Nc2ccccc2)nc2ccccc21	inconclusive: 23.1 µM [inhibitor, single point]
COc1ccc(C2NC(=O)N(C)C3=C2C(=O)N(c2cccc(C(=O)O)c2)C3)cc1 (stereo not drawn)	inconclusive: 3.16 µM [inhibitor, partial curve, poor fit]
Cc1ccccc1-n1cnnc1SCC(=O)Nc1cccnc1Cl	inconclusive: 35.5 µM [activator, single point]
CCC1CCCCN1CCCNC(=O)c1ccc2c(=O)n(Cc3ccc(OC)cc3)c(=O)[nH]c2c1 (stereo not drawn)	inconclusive: 23.1 µM [inhibitor, single point]
O[Si](CCCN1CCCCC1)(c1ccc(F)cc1)C1CCCCC1 (stereo not drawn)	active: 2.82 µM
CN(C)C(=O)c1cc(C(=O)c2ccc(C(F)(F)F)cc2F)c[nH]1	inconclusive: 17.8 µM [activator, partial curve, poor fit]
O=C(CN1C(=O)COc2ccccc21)N(Cc1ccccc1)Cc1ccccn1	inactive
COc1ccc(CNC(=O)C(=O)NCC(c2ccco2)N2CCOCC2)cc1 (stereo not drawn)	inconclusive: 7.08 µM [activator, partial curve, poor fit]
CC1=C(C(=O)Nc2ccccc2)S(=O)(=O)CCO1	inconclusive: 1.26 µM [inhibitor, single point]
Cc1cccc(N(CC(=O)NCCSCc2cccc(Cl)c2)S(=O)(=O)c2ccccc2)c1C	inconclusive: 22.4 µM [inhibitor, single point]
Cc1cc(C)c(C(=O)OCC(=O)Nc2cccc(S(=O)(=O)N3CCCCC3)c2)c(C)c1	inconclusive: 17.8 µM [inhibitor, partial curve, poor fit]
O=C(CN1C2=NCCN2c2ccccc21)c1ccc(Br)cc1	inconclusive: 11.2 µM [inhibitor, partial curve, poor fit]
COC(=O)c1ccccc1NC(=O)c1cnn2c(C(F)F)cc(C3CC3)nc12	inconclusive: 15.8 µM [inhibitor, partial curve, poor fit]
C/C(=N\N1CCN(c2ccccc2)CC1)c1ccco1	inconclusive: 3.98 µM [activator, single point]
O=C(COC(=O)/C=C/c1cccc(F)c1)Nc1ncccn1	inconclusive: 10 µM [activator, single point]
Cc1ccc(C)c(Cn2c(=O)n(C)c(=O)c3sccc32)c1	inactive
O=C(Nc1ccc2c(c1)OCCO2)c1cccc(C(=O)Nc2ccc3c(c2)OCCO3)c1	inconclusive: 14.1 µM [activator, partial curve, poor fit]
CC(C)CO/N=C1/C[C@@H](O)[C@@H](O)[C@@H]2[C@H]3C(=O)N(c4ccc(F)cc4F)C(=O)[C@@H]3CC[C@H]12	inconclusive: 1.19 µM [activator, single point]

Structure (SMILES)	Potency
O=C(c1cn(-c2ccccc2)nc1-c1cccc(Br)c1)N1CCOCC1	inconclusive: 35.5 µM [inhibitor, single point]
COCCNCCCCOc1ccc(Br)cc1C	inconclusive: 29.1 µM [inhibitor, single point]
C=CCn1cccc(C(=O)Nc2ccc(OC)c(Cl)c2)c1=O	inactive
C=CCNC(=O)NC(=O)COC(=O)/C=C/c1cccc([N+](=O)[O-])c1	inactive
CNC(=O)NC(=O)CSc1nc2sccc2c(=O)n1-c1ccccc1	inconclusive: 14.1 µM [activator, single point]
Cc1ccc(C(=O)N2CCN(c3cc4c(cc3[N+](=O)[O-])n(C)c(=O)n4C)CC2)cc1	inconclusive: 1.46 µM [inhibitor, full curve, poor fit]
COc1ccc(C2=NOC(C(=O)NCc3ccco3)C2)cc1 (stereo not drawn)	inconclusive: 5.8 µM [inhibitor, full curve]
CCOC(=O)C1CCCN(C(=O)c2ccccc2NC(C)=O)C1 (stereo not drawn)	inactive
O=C(O)C1CCN(C(=O)CCc2ccccc2)CC1	inactive
CC1(C)CNC(=O)c2sc(NC(=O)c3ccccc3Cl)nc2C1	inconclusive: 3.16 µM [activator, single point]
COc1cccc(OCc2nc3ncc(Br)cc3[nH]2)c1	inconclusive: 0.326 µM [inhibitor, full curve, poor fit]
COc1cc(Cc2ccc(N)c(OC)c2)ccc1N	inactive
COc1ccccc1-c1cc(C(=O)Nc2cc(OC)c(OC)c(OC)c2)no1	inconclusive: 0.631 µM [inhibitor, full curve, poor fit]
Cc1nc(NC(=O)CSc2nnc(-c3ccc4c(c3)OCO4)o2)c(Cl)cc1Cl	inactive
CCC(=O)c1ccc(OCC(=O)N2CCc3cc(OC)c(OC)cc3C2)cc1	inconclusive: 35.5 µM [inhibitor, single point]
CCOC(=O)c1cnc2c(c(C)nn2CC)c1NC1CC1	inactive
O=C(CCc1ccc(S(=O)(=O)N2CCOCC2)cc1)N/N=C/c1ccc(F)cc1F	inconclusive: 2.51 µM [inhibitor, full curve, poor fit]
CCOC(=O)N1C2C=CC(C2)N1C(=O)OCC	inconclusive: 2.82 µM [inhibitor, single point]
O=C(CN1CCC(NC(=O)C2CC2)CC1)Nc1ccccc1[N+](=O)[O-]	inconclusive: 35.5 µM [inhibitor, single point]
CCOc1ccc(C(=O)C2CCN(CC(=O)Nc3nccs3)CC2)cc1	inconclusive: 10 µM [inhibitor, partial curve, poor fit]
CCOC(=O)c1[nH]c2cc3c(cc2c1NC(=O)CN1CC(C)CC(C)C1)OCO3 (stereo not drawn)	inconclusive: 1.26 µM [activator, single point]
CCOc1ccccc1NC(=O)CSc1nnc(-c2ccccc2Cl)n1Cc1ccco1	inconclusive: 8.91 µM [inhibitor, partial curve]
CCNS(=O)(=O)c1ccc2c(c1)n(C)c(=O)n2C	inactive

Structure (SMILES)	Potency
COC(=O)c1cc(CSc2nnc(NC3CCCCC3)s2)oc1C	inconclusive: 1.64 µM [inhibitor, partial curve]
CC(=O)Nc1ccc(/C=C(\C#N)C(=O)NCc2ccccc2)cc1	inconclusive: 1.3 µM [inhibitor, single point]
CC(C)OC(=O)/C(=C/c1ccc2c(c1)c1ccccc1n2C)NC(=O)c1ccccc1	inconclusive: 0.447 µM [inhibitor, full curve, poor fit]
COc1ccc(Cl)cc1N(C)C(=O)c1cc2c(=O)oc3ccc(C)cc3c2s1	inconclusive: 5.62 µM [inhibitor, single point]
COc1ccc(NC(=O)NC2(C(=O)N3CCCC(C)C3)CCCCC2)cc1 (stereo not drawn)	inconclusive: 2.24 µM [inhibitor, full curve, poor fit]
C=C(C)Cn1c(CCNC(=O)c2ccco2)nc2ccccc21	inconclusive: 35.5 µM [inhibitor, single point]
Cc1cc(CNC(=O)COc2ccc(C)c(C)c2)c2ccccc2n1	inconclusive: 35.5 µM [inhibitor, single point]
CCCCNC(=O)c1cn(CC(C)C)c(=O)c2c1c1ccccc1n2C	inconclusive: 0.199 µM [inhibitor, full curve, poor fit]
CCOC(=O)CC(=O)CSc1nc(-c2ccc3c(c2)OCO3)cc(C(F)(F)F)c1C#N	inactive
COc1ccccc1C(=O)N(CCC1CCCN1C)c1nc2ccccc2s1 (stereo not drawn)	inconclusive: 3.98 µM [inhibitor, full curve, poor fit]
CN(Cc1ccc(OC(F)F)cc1)C(=O)c1ccccc1Sc1ccccc1C#N	inconclusive: 3.98 µM [inhibitor, partial curve, poor fit]
CCOC(=O)C1=C(C)NC(C)=C(C(=O)OCC)C1c1cccc(C)n1	inconclusive: 6.31 µM [inhibitor, single point]
Cc1ccc(C(=O)COC(=O)c2cccc(NC(=O)c3ccc(Cl)cc3Cl)c2)cc1	inactive
C=CCn1c(=O)/c(=C/c2ccc(Cl)cc2)s/c1=C(/C#N)c1nnc2n1CCCCC2	inconclusive: 20.6 µM [inhibitor, single point]
Nc1c(C(=O)Nc2ccccc2F)sc2nc3c(cc12)CCCCCC3	inconclusive: 8.91 µM [activator, partial curve, poor fit]
CC(NC(=S)NC1CCCCC1)C(c1cccs1)N1CCOCC1 (stereo not drawn)	inactive
Cc1ccc(C)c(NC(=O)Cn2cc(C(=O)c3cccs3)c3ccccc32)c1	inconclusive: 8.91 µM [inhibitor, partial curve, poor fit]
CS(=O)(=O)Nc1ccccc1C(=O)N1CCCC1	inactive
CC(C)N1CCC(N2CCN(C3CCCCC3)CC2CCO)CC1 (stereo not drawn)	inactive
COCC(C)n1c(SCC(=O)NC(=O)Nc2ccc3c(c2)OCCO3)nc2ccccc2c1=O (stereo not drawn)	inactive
CC(=O)c1ccc(NC(=O)c2nc(-c3ccccc3)n(-c3ccccc3)n2)cc1	inactive
COc1cc(OC)c(NS(=O)(=O)c2ccc(Cl)c(C(=O)OC(C)C(=O)N3CCCC3)c2)cc1Cl (stereo not drawn)	inconclusive: 29.1 µM [inhibitor, partial curve, poor fit]

Laid out differently: 15 of the compounds above.
Structure (SMILES) | Potency
COC(=O)c1cc(CSc2nnc(NC3CCCCC3)s2)oc1C | inconclusive: 1.64 µM [inhibitor, partial curve]
COc1ccc(NC(=O)NC2(C(=O)N3CCCC(C)C3)CCCCC2)cc1 (stereo not drawn) | inconclusive: 2.24 µM [inhibitor, full curve, poor fit]
C=C(C)Cn1c(CCNC(=O)c2ccco2)nc2ccccc21 | inconclusive: 35.5 µM [inhibitor, single point]
CCCCNC(=O)c1cn(CC(C)C)c(=O)c2c1c1ccccc1n2C | inconclusive: 0.199 µM [inhibitor, full curve, poor fit]
CCOC(=O)CC(=O)CSc1nc(-c2ccc3c(c2)OCO3)cc(C(F)(F)F)c1C#N | inactive
COc1ccccc1C(=O)N(CCC1CCCN1C)c1nc2ccccc2s1 (stereo not drawn) | inconclusive: 3.98 µM [inhibitor, full curve, poor fit]
CN(Cc1ccc(OC(F)F)cc1)C(=O)c1ccccc1Sc1ccccc1C#N | inconclusive: 3.98 µM [inhibitor, partial curve, poor fit]
CCOC(=O)C1=C(C)NC(C)=C(C(=O)OCC)C1c1cccc(C)n1 | inconclusive: 6.31 µM [inhibitor, single point]
Cc1ccc(C(=O)COC(=O)c2cccc(NC(=O)c3ccc(Cl)cc3Cl)c2)cc1 | inactive
C=CCn1c(=O)/c(=C/c2ccc(Cl)cc2)s/c1=C(/C#N)c1nnc2n1CCCCC2 | inconclusive: 20.6 µM [inhibitor, single point]
Nc1c(C(=O)Nc2ccccc2F)sc2nc3c(cc12)CCCCCC3 | inconclusive: 8.91 µM [activator, partial curve, poor fit]
CC(NC(=S)NC1CCCCC1)C(c1cccs1)N1CCOCC1 (stereo not drawn) | inactive
CC(C)N1CCC(N2CCN(C3CCCCC3)CC2CCO)CC1 (stereo not drawn) | inactive
COCC(C)n1c(SCC(=O)NC(=O)Nc2ccc3c(c2)OCCO3)nc2ccccc2c1=O (stereo not drawn) | inactive
CC(=O)c1ccc(NC(=O)c2nc(-c3ccccc3)n(-c3ccccc3)n2)cc1 | inactive
